{"source": "patent EP3783012A1", "about": "(priority 2019, dated 2021)", "assay": "peptide made by a vendor (Fmoc solid-phase peptide synthesis)", "conditions": "whole synthesis, reverse-phase HPLC", "note": "HELM strings list residues between dots; [ac] is acetyl, [am] amide, other brackets name non-standard units.", "data": [{"substance": "PEPTIDE1{V.R.G.L.A.P.K.K.S.L.W.P.F.G.G.P.F.K.S.P.F.N}$$$$V2.0", "values": [{"measurement": "final HPLC purity", "result": "95-99%"}]}]}
